Test results reported in the supplement of paper PMC10849652.
The list shows a part of the results.

Sequences of proteins named here, by UniProt entry; tags and fusion partners are left off. A change or cut given only in a name is not applied to a line headed by its entry.
UniProt P27448: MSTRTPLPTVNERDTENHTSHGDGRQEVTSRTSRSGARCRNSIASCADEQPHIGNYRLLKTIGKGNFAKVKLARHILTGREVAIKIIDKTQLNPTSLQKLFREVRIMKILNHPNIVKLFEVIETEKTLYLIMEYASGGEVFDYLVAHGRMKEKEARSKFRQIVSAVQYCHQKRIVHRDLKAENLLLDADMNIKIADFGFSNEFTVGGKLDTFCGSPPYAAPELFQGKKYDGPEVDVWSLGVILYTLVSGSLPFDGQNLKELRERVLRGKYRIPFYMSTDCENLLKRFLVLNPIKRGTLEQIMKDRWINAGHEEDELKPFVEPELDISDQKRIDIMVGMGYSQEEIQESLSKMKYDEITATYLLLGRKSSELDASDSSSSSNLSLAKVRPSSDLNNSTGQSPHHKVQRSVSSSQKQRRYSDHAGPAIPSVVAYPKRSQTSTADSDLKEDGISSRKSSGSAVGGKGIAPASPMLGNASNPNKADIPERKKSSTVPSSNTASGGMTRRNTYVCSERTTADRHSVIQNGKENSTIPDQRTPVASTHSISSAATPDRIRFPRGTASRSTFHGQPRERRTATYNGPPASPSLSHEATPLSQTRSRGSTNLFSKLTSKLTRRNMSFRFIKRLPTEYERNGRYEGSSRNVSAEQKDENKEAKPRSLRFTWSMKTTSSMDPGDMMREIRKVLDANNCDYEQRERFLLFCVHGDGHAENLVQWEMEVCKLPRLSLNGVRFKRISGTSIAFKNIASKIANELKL
UniProt Q8WVR3: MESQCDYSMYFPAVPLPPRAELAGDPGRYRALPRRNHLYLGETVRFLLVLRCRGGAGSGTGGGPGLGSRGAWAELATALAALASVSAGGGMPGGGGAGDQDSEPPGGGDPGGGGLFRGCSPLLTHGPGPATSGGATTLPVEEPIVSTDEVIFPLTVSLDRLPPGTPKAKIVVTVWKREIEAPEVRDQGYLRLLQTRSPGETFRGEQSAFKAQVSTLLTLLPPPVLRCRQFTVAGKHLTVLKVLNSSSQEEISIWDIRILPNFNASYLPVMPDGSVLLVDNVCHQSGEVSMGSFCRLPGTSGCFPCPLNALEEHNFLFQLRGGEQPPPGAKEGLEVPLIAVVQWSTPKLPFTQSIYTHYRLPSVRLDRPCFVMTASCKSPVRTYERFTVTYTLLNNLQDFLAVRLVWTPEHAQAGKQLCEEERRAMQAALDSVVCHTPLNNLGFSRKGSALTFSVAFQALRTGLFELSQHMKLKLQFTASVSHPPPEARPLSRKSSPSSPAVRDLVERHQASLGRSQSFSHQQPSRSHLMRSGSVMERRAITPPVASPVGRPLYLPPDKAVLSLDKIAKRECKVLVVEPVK
UniProt Q9Y2E5: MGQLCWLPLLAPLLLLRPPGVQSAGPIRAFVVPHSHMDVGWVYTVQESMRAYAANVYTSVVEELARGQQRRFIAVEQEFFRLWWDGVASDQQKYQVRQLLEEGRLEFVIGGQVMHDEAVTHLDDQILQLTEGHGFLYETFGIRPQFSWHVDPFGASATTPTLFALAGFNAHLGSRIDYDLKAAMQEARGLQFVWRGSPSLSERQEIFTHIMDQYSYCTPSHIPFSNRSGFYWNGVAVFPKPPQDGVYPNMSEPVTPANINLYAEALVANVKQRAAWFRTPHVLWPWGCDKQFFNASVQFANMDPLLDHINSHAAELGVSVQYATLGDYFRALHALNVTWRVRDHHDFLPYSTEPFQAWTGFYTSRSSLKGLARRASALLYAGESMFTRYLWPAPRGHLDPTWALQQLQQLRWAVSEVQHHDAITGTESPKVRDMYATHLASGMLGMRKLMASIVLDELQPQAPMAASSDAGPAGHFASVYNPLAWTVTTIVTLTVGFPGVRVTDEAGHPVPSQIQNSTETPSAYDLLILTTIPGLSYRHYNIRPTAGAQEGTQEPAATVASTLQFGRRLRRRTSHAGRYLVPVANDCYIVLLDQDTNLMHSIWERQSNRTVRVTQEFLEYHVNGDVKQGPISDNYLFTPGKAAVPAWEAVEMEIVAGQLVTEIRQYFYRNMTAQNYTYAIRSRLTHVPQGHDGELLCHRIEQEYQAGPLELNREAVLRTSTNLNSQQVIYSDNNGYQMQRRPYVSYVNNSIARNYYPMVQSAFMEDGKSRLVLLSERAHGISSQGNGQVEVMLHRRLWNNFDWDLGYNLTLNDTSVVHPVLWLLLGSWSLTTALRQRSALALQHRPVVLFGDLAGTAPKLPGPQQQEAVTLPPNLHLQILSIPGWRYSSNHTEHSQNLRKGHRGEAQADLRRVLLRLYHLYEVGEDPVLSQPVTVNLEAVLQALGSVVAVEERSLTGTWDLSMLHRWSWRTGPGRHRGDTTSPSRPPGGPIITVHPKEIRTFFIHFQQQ
UniProt P53778: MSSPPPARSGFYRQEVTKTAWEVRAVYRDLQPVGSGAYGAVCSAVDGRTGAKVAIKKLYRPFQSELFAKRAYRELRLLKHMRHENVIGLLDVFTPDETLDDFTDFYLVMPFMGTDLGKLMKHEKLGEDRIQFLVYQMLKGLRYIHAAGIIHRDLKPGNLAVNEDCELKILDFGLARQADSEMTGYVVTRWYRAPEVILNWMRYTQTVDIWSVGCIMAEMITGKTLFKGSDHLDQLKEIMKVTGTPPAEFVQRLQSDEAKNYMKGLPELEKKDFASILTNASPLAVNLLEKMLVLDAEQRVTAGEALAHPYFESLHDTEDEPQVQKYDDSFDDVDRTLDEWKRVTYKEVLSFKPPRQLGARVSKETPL
UniProt O95819: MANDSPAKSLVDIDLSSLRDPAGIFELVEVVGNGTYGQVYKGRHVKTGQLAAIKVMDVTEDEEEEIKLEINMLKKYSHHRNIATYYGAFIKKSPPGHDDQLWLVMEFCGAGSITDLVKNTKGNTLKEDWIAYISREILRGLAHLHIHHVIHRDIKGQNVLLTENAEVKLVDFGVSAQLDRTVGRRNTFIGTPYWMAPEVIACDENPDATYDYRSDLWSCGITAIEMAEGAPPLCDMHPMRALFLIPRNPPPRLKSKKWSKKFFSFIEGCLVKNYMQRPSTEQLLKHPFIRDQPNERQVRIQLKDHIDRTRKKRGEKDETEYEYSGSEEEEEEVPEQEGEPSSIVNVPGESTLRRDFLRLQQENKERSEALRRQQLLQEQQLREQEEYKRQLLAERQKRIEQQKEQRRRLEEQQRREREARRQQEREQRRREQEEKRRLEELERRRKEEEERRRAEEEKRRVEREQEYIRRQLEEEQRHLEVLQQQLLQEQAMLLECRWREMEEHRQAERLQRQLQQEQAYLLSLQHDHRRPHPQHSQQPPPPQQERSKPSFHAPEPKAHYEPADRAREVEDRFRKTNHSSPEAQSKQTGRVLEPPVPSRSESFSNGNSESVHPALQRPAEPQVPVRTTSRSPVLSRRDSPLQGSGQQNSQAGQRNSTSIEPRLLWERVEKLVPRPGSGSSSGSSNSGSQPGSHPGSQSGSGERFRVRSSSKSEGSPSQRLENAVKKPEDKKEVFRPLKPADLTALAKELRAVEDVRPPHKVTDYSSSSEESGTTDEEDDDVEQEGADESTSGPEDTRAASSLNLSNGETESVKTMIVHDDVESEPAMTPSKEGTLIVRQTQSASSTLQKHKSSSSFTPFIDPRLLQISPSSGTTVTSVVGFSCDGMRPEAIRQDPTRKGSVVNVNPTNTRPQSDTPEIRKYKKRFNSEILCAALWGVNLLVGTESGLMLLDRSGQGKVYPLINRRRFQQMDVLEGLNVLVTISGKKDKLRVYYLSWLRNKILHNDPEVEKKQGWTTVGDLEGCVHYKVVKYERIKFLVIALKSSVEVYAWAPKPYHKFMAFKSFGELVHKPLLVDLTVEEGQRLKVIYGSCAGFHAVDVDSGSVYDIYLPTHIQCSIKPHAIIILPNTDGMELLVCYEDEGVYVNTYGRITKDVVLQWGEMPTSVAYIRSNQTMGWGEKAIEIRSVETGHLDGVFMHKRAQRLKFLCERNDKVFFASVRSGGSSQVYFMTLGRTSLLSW
UniProt Q8WV07: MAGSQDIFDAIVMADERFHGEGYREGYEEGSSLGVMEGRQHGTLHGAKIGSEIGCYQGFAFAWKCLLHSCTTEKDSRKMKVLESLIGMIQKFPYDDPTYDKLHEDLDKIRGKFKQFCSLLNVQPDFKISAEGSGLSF
UniProt P07948: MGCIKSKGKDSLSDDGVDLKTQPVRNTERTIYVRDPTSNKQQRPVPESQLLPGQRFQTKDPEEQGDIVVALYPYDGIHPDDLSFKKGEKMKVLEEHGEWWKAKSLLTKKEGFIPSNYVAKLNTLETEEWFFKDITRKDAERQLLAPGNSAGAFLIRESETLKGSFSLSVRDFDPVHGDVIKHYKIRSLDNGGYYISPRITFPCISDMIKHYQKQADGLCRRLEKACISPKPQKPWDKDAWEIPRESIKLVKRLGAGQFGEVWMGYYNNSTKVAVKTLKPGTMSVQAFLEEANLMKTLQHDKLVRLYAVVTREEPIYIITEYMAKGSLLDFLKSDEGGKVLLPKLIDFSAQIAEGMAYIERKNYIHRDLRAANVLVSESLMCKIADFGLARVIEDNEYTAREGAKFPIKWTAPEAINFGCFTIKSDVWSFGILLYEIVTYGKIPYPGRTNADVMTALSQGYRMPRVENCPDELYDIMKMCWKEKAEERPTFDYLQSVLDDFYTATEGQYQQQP
UniProt Q99759: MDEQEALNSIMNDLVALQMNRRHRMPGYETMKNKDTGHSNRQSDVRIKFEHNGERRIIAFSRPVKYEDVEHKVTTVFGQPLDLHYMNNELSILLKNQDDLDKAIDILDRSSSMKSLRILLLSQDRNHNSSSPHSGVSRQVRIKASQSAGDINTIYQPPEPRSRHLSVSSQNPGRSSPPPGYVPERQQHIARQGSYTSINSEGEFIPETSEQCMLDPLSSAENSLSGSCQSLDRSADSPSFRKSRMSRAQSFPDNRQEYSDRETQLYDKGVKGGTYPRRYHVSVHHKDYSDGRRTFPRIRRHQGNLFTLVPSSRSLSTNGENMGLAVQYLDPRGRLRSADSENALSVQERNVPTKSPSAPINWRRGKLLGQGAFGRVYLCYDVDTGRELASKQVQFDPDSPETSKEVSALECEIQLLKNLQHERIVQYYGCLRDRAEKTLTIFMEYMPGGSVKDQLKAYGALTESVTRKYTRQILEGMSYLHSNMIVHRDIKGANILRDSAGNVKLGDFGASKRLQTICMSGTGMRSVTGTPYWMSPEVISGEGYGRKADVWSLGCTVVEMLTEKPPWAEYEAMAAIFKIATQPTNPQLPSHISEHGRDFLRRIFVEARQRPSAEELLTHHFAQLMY
UniProt O43318: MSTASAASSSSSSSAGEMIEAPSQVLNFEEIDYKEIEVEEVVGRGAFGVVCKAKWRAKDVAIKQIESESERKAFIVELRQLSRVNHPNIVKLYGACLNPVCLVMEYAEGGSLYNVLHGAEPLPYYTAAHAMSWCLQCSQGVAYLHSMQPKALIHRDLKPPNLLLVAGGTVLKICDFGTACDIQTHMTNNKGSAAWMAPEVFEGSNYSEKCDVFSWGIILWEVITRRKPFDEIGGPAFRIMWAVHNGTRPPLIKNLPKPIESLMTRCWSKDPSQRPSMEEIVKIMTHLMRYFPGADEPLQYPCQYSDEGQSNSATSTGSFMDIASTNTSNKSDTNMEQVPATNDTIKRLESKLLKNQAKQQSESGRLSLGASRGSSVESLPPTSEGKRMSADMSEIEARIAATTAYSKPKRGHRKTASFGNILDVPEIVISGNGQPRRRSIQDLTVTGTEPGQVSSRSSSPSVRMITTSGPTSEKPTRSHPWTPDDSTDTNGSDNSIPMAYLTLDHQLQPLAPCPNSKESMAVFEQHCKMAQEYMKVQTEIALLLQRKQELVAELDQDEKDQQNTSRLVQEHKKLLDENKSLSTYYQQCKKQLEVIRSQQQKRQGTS
UniProt Q13163: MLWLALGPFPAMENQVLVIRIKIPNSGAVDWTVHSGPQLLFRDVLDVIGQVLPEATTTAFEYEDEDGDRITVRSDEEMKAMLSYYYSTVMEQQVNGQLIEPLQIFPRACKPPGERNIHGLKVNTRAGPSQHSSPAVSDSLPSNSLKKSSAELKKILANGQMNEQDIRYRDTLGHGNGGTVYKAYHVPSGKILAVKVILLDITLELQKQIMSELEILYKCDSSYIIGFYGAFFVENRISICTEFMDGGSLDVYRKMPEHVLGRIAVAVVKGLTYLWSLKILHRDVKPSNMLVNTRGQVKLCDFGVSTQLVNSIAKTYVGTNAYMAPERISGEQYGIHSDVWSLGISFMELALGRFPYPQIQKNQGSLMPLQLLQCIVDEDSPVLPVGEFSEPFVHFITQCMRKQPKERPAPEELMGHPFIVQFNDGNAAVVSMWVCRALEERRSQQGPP
UniProt Q969L4: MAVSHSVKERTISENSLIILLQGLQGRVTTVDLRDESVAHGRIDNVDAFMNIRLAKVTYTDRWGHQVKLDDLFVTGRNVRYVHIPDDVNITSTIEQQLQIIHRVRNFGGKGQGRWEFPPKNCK
UniProt O15525: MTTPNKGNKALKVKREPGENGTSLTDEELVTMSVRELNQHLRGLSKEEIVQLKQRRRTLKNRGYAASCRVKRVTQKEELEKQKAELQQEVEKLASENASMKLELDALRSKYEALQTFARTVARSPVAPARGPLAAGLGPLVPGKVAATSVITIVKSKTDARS

Columns and labels:
Assay in all cases: log2 fold change, soluble protein after heating vs DMSO (PISA); higher = thermal stabilisation; K562 cells, 10 uM, 30 min; active = over 0.2 and 3.5 SD of the protein, either way, in both replicates (recomputed)
[1] = compound: CC[C@@H]1C(=O)N(C)c2cnc(Nc3ccc(C(=O)NC4CCN(C)CC4)cc3OC)nc2N1C1CCCC1
Procedure, shortened: (§1)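 K562 cells at 2×10^6 cells/mL were treated with 10 μM compound for 30 min. Aliquots were heated for 3 min across 48°C-58°C, pooled, and extracted in PBS with 0.5% NP-40 at 4°C; soluble protein was the supernatant after 21,000xg for 90 min. Soluble protein was quantified by TMTpro 16plex LC-MS/MS with channel sums equalised, and reported as log2 fold change in thermal stability against DMSO controls, with values from duplicates.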

volasertib = compound: CC[C@@H]1C(=O)N(C)c2cnc(Nc3ccc(C(=O)N[C@H]4CC[C@H](N5CCN(CC6CC6)CC5)CC4)cc3OC)nc2N1C(C)C [volasertib]
Procedure, shortened: as §1

[2] = compound: CC[C@H](C)N1C=C(C2=C(C=C(C=C21)C3=CN=C(C=C3)N4CCNCC4)C(=O)NCC5=C(C=C(NC5=O)C)C)C
Procedure, shortened: as §1

epoxomicin = compound: CC[C@H](C)[C@@H](C(=O)N[C@@H]([C@@H](C)O)C(=O)N[C@@H](CC(C)C)C(=O)[C@]1(CO1)C)NC(=O)[C@H]([C@@H](C)CC)N(C)C(=O)C [epoxomicin]
Procedure, shortened: as §1

[3] = compound: CCn1cc(-c2ccnc3[nH]c(-c4cccc(CN(C)C)c4)cc23)c(-c2ccc(NC(=O)N(C)C)cc2)n1
Procedure, shortened: as §1

[4] = compound: CN(C)CC(=O)Nc1ccc2[nH]c(=O)c3ccccc3c2c1
Procedure, shortened: as §1

[5] = compound: CN1C2=C(C3=C1C(=O)N(N=C3)CC4=CC(=CC=C4)N)SC(=C2)S(=O)C
Procedure, shortened: as §1

[6] = compound: CN1CCC(CNc2ccc3ncc(-c4cccc(OC(F)(F)F)c4)n3n2)CC1
Procedure, shortened: as §1

saracatinib = compound: CN1CCN(CCOc2cc(OC3CCOCC3)c3c(Nc4c(Cl)ccc5c4OCO5)ncnc3c2)CC1 [saracatinib]
Procedure, shortened: as §1

sotrastaurin = compound: CN1CCN(c2nc(C3=C(c4c[nH]c5ccccc45)C(=O)NC3=O)c3ccccc3n2)CC1 [sotrastaurin]
Procedure, shortened: as §1

Tubastatin A = compound: CN1CCc2c(c3ccccc3n2Cc2ccc(C(=O)NO)cc2)C1 [Tubastatin A]
Procedure, shortened: as §1

[7] = compound: CNC(=O)C1=CC=CC=C1NC2=NC(=NC=C2Cl)NC3=C(C=C(C=C3)N4CCOCC4)OC
Procedure, shortened: as §1

defactinib = compound: CNC(=O)c1ccc(Nc2ncc(C(F)(F)F)c(NCc3nccnc3N(C)S(C)(=O)=O)n2)cc1 [defactinib]
Procedure, shortened: as §1

rucaparib = compound: CNCc1ccc(-c2[nH]c3cc(F)cc4c3c2CCNC4=O)cc1 [rucaparib]
Procedure, shortened: as §1

[8] = compound: CNc1nc(-c2ccc3c(N)n[nH]c3c2)cc(N2C[C@@H](C(=O)NC3CCCCC3)CC[C@H]2C)n1
Procedure, shortened: as §1

encorafenib = compound: COC(=O)N[C@@H](C)CNc1nccc(-c2cn(C(C)C)nc2-c2cc(Cl)cc(NS(C)(=O)=O)c2F)n1 [encorafenib]
Procedure, shortened: as §1

[9] = compound: COC(=O)[C@H](CCSC)NC(=O)C1=C(C=C(C=C1)NC[C@H](CS)N)C2=CC=CC=C2
Procedure, shortened: as §1

[10] = compound: CCn1c(C(=O)N(C2CC2)C2CC2)cc2c3c(ncn3C)c(Nc3cc(C)n(C)n3)nc21
Procedure, shortened: as §1

rosiglitazone = compound: CN(CCOC1=CC=C(C=C1)C[C@H]2C(=O)NC(=O)S2)C3=CC=CC=N3 (racemic) [rosiglitazone]
Procedure, shortened: as §1

alvocidib = compound: CN1CC[C@H](c2c(O)cc(O)c3c(=O)cc(-c4ccccc4Cl)oc23)[C@H](O)C1 [alvocidib]
Procedure, shortened: as §1

Row | Target | log2 fold change [1] | log2 fold change (volasertib) | log2 fold change [2] | log2 fold change (epoxomicin) | log2 fold change [3] | log2 fold change [4] | log2 fold change [5] | log2 fold change [6] | log2 fold change (saracatinib) | log2 fold change (sotrastaurin) | log2 fold change (Tubastatin A) | log2 fold change [7] | log2 fold change (defactinib) | log2 fold change (rucaparib) | log2 fold change [8] | log2 fold change (encorafenib) | log2 fold change [9] | log2 fold change [10] | log2 fold change (rosiglitazone) | log2 fold change (alvocidib)
1 | MARK3 (UniProt P27448) | inactive: -0.057 | inactive: -0.078 | inactive: 0.097 | inactive: 0.019 | inactive: -0.019 | inactive: 0.055 | inactive: 0.051 | active: -0.549 | inactive: 0.024 | active: -0.434 | inactive: 0.058 | inactive: -0.367 | inactive: -0.176 | inactive: -0.016 | inactive: -0.069 | inactive: 0.096 | inactive: 0.033 | – | – | –
2 | MAP11 (UniProt Q8WVR3) | inactive: 0.033 | – | inactive: 0.011 | inactive: 0.038 | inactive: 0.083 | inactive: 0.17 | – | inactive: -0.025 | – | inactive: -0.08 | – | inactive: -0.188 | inactive: -0.158 | inactive: 0.103 | – | inactive: -0.006 | inactive: 0.017 | inactive: 0.399 | inactive: 0.034 | inactive: -0.268
3 | MAN2B2 (UniProt Q9Y2E5) | active: -0.445 | active: -0.704 | inactive: -0.005 | inactive: -0.002 | – | inactive: -0.019 | inactive: 0.013 | – | inactive: -0.015 | inactive: -0.018 | inactive: 0.105 | inactive: 0.035 | inactive: -0.009 | inactive: -0.158 | inactive: 0.007 | inactive: 0.044 | inactive: -0.04 | – | – | –
4 | MAPK12 (UniProt P53778) | inactive: -0.097 | inactive: 0.036 | inactive: -0.128 | inactive: 0.089 | inactive: -0.051 | inactive: 0.009 | inactive: -0.097 | inactive: -0.077 | inactive: 0.119 | – | inactive: -0.037 | inactive: 0.112 | inactive: -0.06 | inactive: 0.101 | inactive: -0.074 | inactive: 0.017 | inactive: 0.059 | – | – | –
5 | MAP4K4 isoform 3 (UniProt O95819) | inactive: -0.082 | active: -0.316 | inactive: 0.011 | inactive: 0.047 | inactive: -0.184 | inactive: 0.012 | inactive: 0.001 | active: -0.299 | inactive: -0.054 | – | inactive: -0.002 | inactive: -0.051 | inactive: -0.067 | inactive: -0.004 | inactive: -0.037 | inactive: 0.026 | inactive: 0.018 | – | – | –
6 | LTO1 (UniProt Q8WV07) | inactive: -0.018 | inactive: 0.322 | inactive: 0.058 | inactive: 0.063 | inactive: -0.029 | active: -0.312 | inactive: -0.105 | inactive: 0.035 | inactive: 0.071 | inactive: -0.003 | inactive: -0.288 | inactive: 0.01 | inactive: 0.051 | inactive: 0.03 | inactive: 0.073 | inactive: -0.016 | active: -0.314 | – | – | –
7 | LYN (UniProt P07948) | inactive: -0.016 | inactive: -0.023 | inactive: 0.033 | inactive: 0.039 | inactive: -0.095 | inactive: -0.024 | inactive: 0.144 | inactive: -0.03 | inactive: -0.198 | inactive: -0.08 | inactive: 0.026 | inactive: -0.287 | inactive: -0.174 | inactive: 0.13 | inactive: -0.022 | inactive: 0.009 | inactive: 0.038 | – | – | –
8 | LUC7L3 (UniProt O95232) | inactive: -0.057 | inactive: -0.185 | inactive: 0.027 | inactive: 0.005 | inactive: 0 | inactive: -0.031 | inactive: -0.009 | inactive: -0.074 | inactive: -0.003 | inactive: 0.013 | inactive: -0.007 | active: -0.314 | inactive: -0.113 | inactive: -0.008 | inactive: -0.048 | inactive: 0.028 | inactive: -0.003 | – | – | –
9 | MAP3K3 isoform 2 (UniProt Q99759) | inactive: -0.063 | – | inactive: 0.02 | inactive: 0.043 | inactive: 0.164 | inactive: -0.025 | inactive: 0.05 | inactive: -0.378 | inactive: -0.042 | inactive: -0.192 | inactive: -0.094 | inactive: -0.052 | inactive: -0.311 | inactive: 0.138 | inactive: 0.015 | inactive: -0.093 | inactive: -0.049 | inactive: 0.102 | – | inactive: -0.13
10 | MAP3K7 (UniProt O43318) | inactive: -0.015 | active: -0.369 | inactive: -0.008 | inactive: 0.018 | inactive: 0.043 | inactive: 0.046 | inactive: 0.079 | inactive: -0.093 | inactive: -0.07 | inactive: -0.146 | inactive: 0.054 | inactive: 0.023 | inactive: -0.023 | inactive: 0.099 | inactive: -0.035 | inactive: 0.1 | inactive: -0.011 | – | – | –
11 | MAP4 (UniProt P27816) | inactive: 0.011 | inactive: 0.049 | inactive: -0.041 | inactive: -0.003 | inactive: -0.002 | inactive: -0.03 | inactive: -0.004 | inactive: 0.037 | inactive: 0.017 | inactive: 0.019 | inactive: -0.029 | inactive: -0.014 | inactive: 0.016 | inactive: 0.009 | inactive: -0.029 | inactive: -0.001 | inactive: 0.031 | – | – | –
12 | MAP2K5 (UniProt Q13163) | – | – | – | – | – | – | inactive: 0.457 | – | inactive: 0.445 | – | – | – | – | – | inactive: 0.004 | – | – | – | – | –
13 | LSM10 (UniProt Q969L4) | – | inactive: -0.025 | inactive: 0.105 | – | – | – | inactive: -0.533 | – | inactive: 0.269 | – | inactive: -0.033 | inactive: -0.293 | – | – | inactive: -0.068 | – | – | inactive: -0.176 | inactive: -0.375 | –
14 | MAN2B1 (UniProt M0QYZ1) | – | inactive: -0.06 | – | inactive: -0.194 | – | – | – | – | – | – | – | – | – | – | – | – | – | – | – | –
15 | MAP3K20 isoform 2 (UniProt Q9NYL2) | – | inactive: -0.1 | inactive: -0.067 | inactive: -0.03 | – | – | – | – | – | inactive: 0.059 | inactive: 0.093 | inactive: -0.024 | – | – | – | – | – | – | – | –
16 | LSR (UniProt M0QZL9) | – | – | – | inactive: 0.076 | – | inactive: -0.125 | – | – | – | inactive: 0.042 | – | – | inactive: 0.065 | – | – | – | inactive: -0.249 | – | – | –
17 | MAFG (UniProt O15525) | – | – | – | inactive: 0.099 | inactive: 0.024 | inactive: -0.125 | – | inactive: 0.083 | – | – | – | – | inactive: 0.082 | – | – | – | inactive: -0.007 | – | – | inactive: 0.124

Pulled one by one from the list above:
Row | Target | log2 fold change [1] | log2 fold change (volasertib) | log2 fold change [2] | log2 fold change (epoxomicin) | log2 fold change [3] | log2 fold change [4] | log2 fold change [5] | log2 fold change [6] | log2 fold change (saracatinib) | log2 fold change (sotrastaurin) | log2 fold change (Tubastatin A) | log2 fold change [7] | log2 fold change (defactinib) | log2 fold change (rucaparib) | log2 fold change [8] | log2 fold change (encorafenib) | log2 fold change [9] | log2 fold change [10] | log2 fold change (rosiglitazone) | log2 fold change (alvocidib)
11 | MAP4 (UniProt P27816) | inactive: 0.011 | inactive: 0.049 | inactive: -0.041 | inactive: -0.003 | inactive: -0.002 | inactive: -0.03 | inactive: -0.004 | inactive: 0.037 | inactive: 0.017 | inactive: 0.019 | inactive: -0.029 | inactive: -0.014 | inactive: 0.016 | inactive: 0.009 | inactive: -0.029 | inactive: -0.001 | inactive: 0.031 | – | – | –
16 | LSR (UniProt M0QZL9) | – | – | – | inactive: 0.076 | – | inactive: -0.125 | – | – | – | inactive: 0.042 | – | – | inactive: 0.065 | – | – | – | inactive: -0.249 | – | – | –
